The values that follow come from article PMC12284271, “Coupling chromosome organization to genome segregation in Archaea”.

The data set addresses T1, SegB (SegBSa) (Sulfolobus acidocaldarius) (UniProt Q4JC57).
T1 sequence (looked up, limits assumed): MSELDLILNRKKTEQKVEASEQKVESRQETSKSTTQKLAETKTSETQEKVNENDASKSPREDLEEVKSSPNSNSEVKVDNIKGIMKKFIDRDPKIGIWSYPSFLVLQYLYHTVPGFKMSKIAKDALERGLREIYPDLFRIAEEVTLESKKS
Nature of the data set: DNase I footprinting. Conditions: large window, three additional sites; DNA 1-5 nM, SegB 0-1000 nM; recombinant protein; label: biotin.

For at least one entry, the source does not settle the construct or the ends of the probe. Protein sequences can lack the tags named with them.

On to “GTATTTTTATTTTTGGATAAAGTGTAAGAGAGATTTACGGAGGTTGTAGTTTTCCCTACACCTCCTTTCTGATTGATGACAGTGATTATCATATATAGACTCTTAACTCTATACCCTTTATTTCAGATTCTTCTCATAATACACCGTAGTCTGGAGTGAAAAATCTAAAGTAAATCCACTAGGTGAATAGGTTTTAAACC (double strand) [peak 15 region, 200 bp]”, for which the binding result was “binds”.
